From patent publication US20230079757A1, “METHODS AND MATERIALS FOR TREATING CANCER” (Mayo Foundation for Medical Education and Research, priority 2020, published 2023)
Results are given in words; binding and its absence hold for the method and conditions named. Binding seen in cells or lysates may run through a third protein. Some results given as binding are weak or reduced against the parent protein; the word gives no strength. One block for each molecule: values may come before it.

Columns and labels:
[1] = target: T1, FOXA1 forkhead domain-containing region (FKCR, a.a. 141-294) (UniProt P55317); assay: GST pulldown, GST-STAT2 fragment on beads with 293T lysate (FIG. 9E)
T1 sequence (looked up): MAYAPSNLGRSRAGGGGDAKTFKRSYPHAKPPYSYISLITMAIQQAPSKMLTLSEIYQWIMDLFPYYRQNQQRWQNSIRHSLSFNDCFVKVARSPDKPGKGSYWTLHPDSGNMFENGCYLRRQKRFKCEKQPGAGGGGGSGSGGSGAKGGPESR

[2] = target: T2, GST-tagged STAT2 DNA binding domain (a.a. 312-486) (UniProt P52630 312-486); assay: GST pulldown (FIG. 8D)
T2 construct: range 312-486; also called STAT2-DBD; STAT2 DBD; not shown: GST tag
T2 sequence (looked up): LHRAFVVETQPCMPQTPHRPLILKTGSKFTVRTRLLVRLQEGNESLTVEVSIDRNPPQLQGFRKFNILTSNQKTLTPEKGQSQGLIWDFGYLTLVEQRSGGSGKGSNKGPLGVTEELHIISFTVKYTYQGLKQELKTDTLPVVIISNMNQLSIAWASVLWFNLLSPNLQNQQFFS

binding [1]: binds
Molecule: GST-tagged STAT2 DNA binding domain (a.a. 312-486) (from UniProt P52630 312-486)

binding [2]: binds
B1: FOXA1-N216A/H220A/N225A (protein, UniProt P55317 1-472, looked up)
chain: MLGTVKMEGHETSDWNSYYADTQEAYSSVPVSNMNSGLGSMNSMNTYMTMNTMTTSGNMTPASFNMSYANPGLGAGLSPGAVAGMPGGSAGAMNSMTAAGVTAMGTALSPSGMGAMGAQQAASMNGLGPYAAAMNPCMSPMAYAPSNLGRSRAGGGGDAKTFKRSYPHAKPPYSYISLITMAIQQAPSKMLTLSEIYQWIMDLFPYYRQNQQRWQASIRASLSFADCFVKVARSPDKPGKGSYWTLHPDSGNMFENGCYLRRQKRFKCEKQPGAGGGGGSGSGGSGAKGGPESRKDPSGASNPSADSPLHRGVHGKTGQLEGAPAPGPAASPQTLDHSGATATGGASELKTPASSTAPPISSGPGALASVPASHPAHGLAPHESQLHLKGDPHYSFNHPFSINNLMSSSEQQHKLDFKAYEQALQYSPYGSTLPASLPLGSASVTTRSPIEPSALEPAYYQGVYSRPVLNTS
